Measurements from “University of Dundee, Small-Polar-MMV Screening Library” (2021), ChEMBL document CHEMBL3988442.

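Cell assay of Leishmania donovani living inside macrophages; the read-out is not stated. Concentration: 30 µM. Higher reads as stronger inhibition (inferred: compounds with an IC50 in retests scored well above the rest). About 69,000 compounds were tested under these conditions; 1.5% (about 1,000) showed 50% or more at least once.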

Results are given as percent effect. The record does not define 0% and 100%; most values in the screen are far below 50% and negative numbers occur (in some assays of this library far below -100). Compounds were drawn at random from those tested, without regard to their results. Two or more numbers in one place are separate tests of the same structure; such repeats can differ widely.

CC/C=C(/C)C(=O)N1CSCC1C(=O)NC1=NCCS1 (stereo not shown) read -13.46%.
Cn1nccc1CN1CCOC(c2ccc(-c3cncnc3)cn2)C1 (stereo not shown) read 36.33%.
CCc1nc(C)ncc1C(=O)N1CCCC(n2nc(C)nc2C)C1 (stereo not shown) read 13.88%.
CCOc1ccc(OCCN2CCC(N3CCNC3=O)CC2)cc1 read 36.36%.
COc1ccccc1C1CNCCN1C(C)=O (stereo not shown) read 14.22%.
COc1cccc(COc2nc(C(C)C)no2)c1 read -26.19%.
CC(Cn1cccn1)NC(=O)c1cccs1 (stereo not shown) read -4.888%.
COCCC(C)NCc1ccccc1-n1ccnc1 (stereo not shown) read -2.747%.
CCN(CC)CC(=O)N(C)C(c1cccc(F)c1)c1ccccn1 (stereo not shown) read 4.034%.
CN(C)c1cnn(Cc2nc3ccccc3n2C)c(=O)c1 read -0.8325%.
Cc1csc(C2CCCN(C(=O)c3ccc(=O)n(C)n3)C2)n1 (stereo not shown) read -32.79%.
Cc1nc(-c2cccc(C(=O)O)c2)cc(C2CCCN(C(C)C)C2)n1 (stereo not shown) read 4.144% & -8.393%.
Cc1nn(C)c(C)c1OCC(=O)NCC(O)c1ccsc1 (stereo not shown) read 24.61%.
CCc1sc(C(=O)NC2CC2)cc1C read 27.71%.
O=C(Cn1cccn1)NCC1(c2ccccc2)CC1 read -25.96%.
O=C(O)C(F)(F)F.O=C(O)C(F)(F)F.[H][C@]12CN(Cc3ccncc3)C[C@@]1([H])OCCN(S(C)(=O)=O)C2 read 4.513% & 5.7%.
Cc1cc(C(F)(F)F)c2c(=O)n(Cc3cc(C)on3)n(C)c2n1 read -16.8%.
c1ccc2sc(N3CCCC4(CCOC4)C3)nc2c1 (stereo not shown) read 12.87%.
COCc1cc(O)nc(C2CCCN(Cc3ccc(F)cc3)C2)n1 (stereo not shown) read 0.6058% & 5.152%.
CCC(C)CS(=O)(=O)NC(=O)C1CCC1 (stereo not shown) read -22.67%.
Cc1ccc2nc(C)cc(NCCNS(=O)(=O)c3cn(C)nc3C)c2c1 read 8.377%.
CCn1cc(Cl)c(C(=O)NCCOC)n1 read -13%.
[H][C@]12CCCCN1CCC[C@H]2CCC(=O)N1CCC(c2nnc[nH]2)CC1 read 11.03%.
O=C(Nc1nc[nH]n1)c1cc(-c2ccc(F)cc2)n[nH]1 read -13.19%.
O=C(O)C(F)(F)F.[H][C@@]12CN(CC3CCCC3)CCO[C@]1([H])CN(C(=O)c1cnc(C)cn1)C2 read 22.13%.
c1cc2nccc(CC3CCCN(Cc4ncc[nH]4)CC3)c2cn1 (stereo not shown) read 21.96%.
Cc1cc(C[C@@H]2CCC[C@H]2NCc2ccccc2C)on1.O=C(O)CC(O)(CC(=O)O)C(=O)O read 7.201% & 15.32%.
C1CN(CC2CCOCC2)Cc2c(CN3CCOCC3)nnn2C1 read -3.678%.
CC(C)CNC(=O)c1cccc(CN2CCc3c(ncn3C)C2)c1 read 34.79%.
c1ccc(OCCN2CCCCC2Cn2cncn2)cc1 (stereo not shown) read 42.42%.
COc1cc(CNC(=O)Nc2nnc(C3CC3)s2)ccc1O read 29.08%.
COCCC(=O)N[C@H]1CN(c2nc(C)c3c(n2)CCCC3)C[C@@H]1C1CC1 read -3.355%.
CS(=O)(=O)NC1CCN(C(=O)c2cc3ccccc3s2)C1 (stereo not shown) read -3.032%.
CC(CO)(NC(=O)Nc1nnc(C(F)F)s1)C1CC1 (stereo not shown) read -3.39%.
Cn1ncnc1-c1ccnc(N2CCC(C(O)c3cccs3)CC2)n1 (stereo not shown) read 9.139%.
CC[C@@H]1N(Cc2ccc(F)cc2)CCC[C@]12CCC(=O)N2C.O=C(O)C(F)(F)F read 3.418%.

For reference, 3 entries once more:

* CC(CO)(NC(=O)Nc1nnc(C(F)F)s1)C1CC1 (stereo not shown) : -3.39%
* COCCC(C)NCc1ccccc1-n1ccnc1 (stereo not shown) : -2.747%
* C1CN(CC2CCOCC2)Cc2c(CN3CCOCC3)nnn2C1 : -3.678%